According to patent publication US9107830B2, “Inhibitors of crystallization in a solid dispersion” (ABBVIE, INC., priority 1999, dated 2015):
At least one compound was matched to its structure with a doubt left.

How the values were obtained:
[1] = X-ray powder diffraction of freshly prepared solid dispersions (physical form of drug in matrix); type: physicochemical
Experimental: (§1) An X-ray powder diffraction (XPD) pattern was obtained with a Scintag® XDS 2000 θ/θ diffraction system equipped with a 2 kW normal focus X-ray tube and a liquid nitrogen cooled germanium solid state detector.
The samples were prepared by dissolving ABT-538 in a small volume of 200 proof ethanol in a 250 ml round bottom flask. The flask was vortexed and then placed in a water bath maintained at 75° C. The PEG 8000 was added to the hot alcohol solution with continual swirling until the PEG melted. The flask was then attached to a rotary evaporator, immersed in the water bath (75° C.) under vacuum for 15 minutes to remove the ethanol. After the majority of ethanol had evaporated, the flask was immersed in an ice bath for 15 minutes. The contents of the flask were then vacuum dried at room temperature overnight to remove residual alcohol. The dispersion was removed from the flask, gently ground, and sized to 40-100 mesh size. […]
A similar plot is shown in FIG. 2 with PVP incorporated into the matrix. […] Crystallization kinetics were determined by heating the samples to 85° C., holding them isothermally for predetermined times followed by heating through the melting transition temperature of ABT-538. The heats of fusion were determined and ratioed against the heat of fusion of the drug melting in the physical mixture, giving the fraction crystallized. […]

[2] = XPD rate of crystallization upon storage at 25° C.; type: physicochemical
Experimental: as §1
Both fenofibrate and PEG 8000 were sized to 40-100 mesh prior to mixing with a spatula on weighing paper. The mixture was then added to a 25 ml beaker and heated to 85° C. in a water bath until the all the material had melted. The molten solution was then poured onto a chilled X-ray sample holder to rapidly solidify the solution. The solid sample was immediately used to monitor the crystallization rate via X-ray powder diffraction.
The figure illustrates that the fenofibrate is X-ray-amorphous within the matrix. Again, the fenofibrate is amorphous. Upon storage at 25° C., the fenofibrate begins to crystallize in the PEG 8000 matrix within 1 hour (FIG. 10). Additional crystallization follows up to 12 hours, when the experiment was terminated.
Similar XPD patterns for the griseofulvin dispersion in PEG 8000 and 80:20 PEG 8000:PVP matrices are shown in FIGS. 12 and 13, respectively. In both instances, amorphous griseofulvin is isolated within the respective matrices. […] However, in the presence of PVP (FIG. 15), crystallization is not observed even after 15 hours under the same conditions.

## CC(C)OC(=O)C(C)(C)Oc1ccc(C(=O)c2ccc(Cl)cc2)cc1 [fenofibrate]
[1]; PEG 8000:PVP matrix, 30% ABT-538, 15% fenofibrate (90:10) or 15% griseofulvin (80:20)
  physical form of drug in the solid dispersion by XPD: amorphous
[1]; PEG 8000 matrix, 30% ABT-538, 15% fenofibrate or 15% griseofulvin
  physical form of drug in the solid dispersion by XPD: X-ray-amorphous
[2]; 15% drug in PEG 8000 matrix, storage at 25° C.
  time at which drug begins to crystallize (XPD): ≤ 1 h
[2]; 15% fenofibrate in 90:10 PEG 8000:PVP, 25° C., experiment terminated at 12 hours
  crystallization upon storage (XPD): does not crystallize
